Data published in doi:10.1101/2024.10.03.616509.
Results are given in words; binding and its absence hold for the method and conditions named. Some results given as binding are weak or reduced against the parent protein; the word gives no strength.

What was measured:
Experiment in all cases: two-hybrid
Vps39 = target: T1, Vps39 (UniProt Q96JC1)
T1 sequence: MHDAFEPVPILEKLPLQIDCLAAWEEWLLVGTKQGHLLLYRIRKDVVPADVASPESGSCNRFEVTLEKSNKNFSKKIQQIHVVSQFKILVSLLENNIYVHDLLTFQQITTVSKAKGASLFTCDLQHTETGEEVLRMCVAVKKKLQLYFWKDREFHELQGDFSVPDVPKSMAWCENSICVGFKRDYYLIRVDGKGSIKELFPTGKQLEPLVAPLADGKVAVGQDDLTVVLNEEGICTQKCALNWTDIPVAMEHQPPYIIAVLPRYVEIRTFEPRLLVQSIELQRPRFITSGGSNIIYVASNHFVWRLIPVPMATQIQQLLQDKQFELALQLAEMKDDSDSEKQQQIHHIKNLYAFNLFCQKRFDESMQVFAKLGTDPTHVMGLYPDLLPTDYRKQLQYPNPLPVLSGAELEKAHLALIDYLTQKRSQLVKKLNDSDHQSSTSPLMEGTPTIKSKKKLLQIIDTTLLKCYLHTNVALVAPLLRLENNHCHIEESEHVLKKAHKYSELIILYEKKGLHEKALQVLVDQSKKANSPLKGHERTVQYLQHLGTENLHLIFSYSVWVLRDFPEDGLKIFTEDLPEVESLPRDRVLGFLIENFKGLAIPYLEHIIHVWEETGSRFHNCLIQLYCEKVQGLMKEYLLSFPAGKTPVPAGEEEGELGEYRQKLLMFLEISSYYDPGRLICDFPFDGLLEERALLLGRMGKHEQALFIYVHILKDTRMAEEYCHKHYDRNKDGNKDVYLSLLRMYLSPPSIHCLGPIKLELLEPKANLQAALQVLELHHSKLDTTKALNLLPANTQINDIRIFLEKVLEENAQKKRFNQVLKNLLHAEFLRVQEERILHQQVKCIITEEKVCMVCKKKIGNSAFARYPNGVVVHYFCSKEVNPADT

Vps16 = target: T2, Vps16 (UniProt Q9H269)
T2 sequence: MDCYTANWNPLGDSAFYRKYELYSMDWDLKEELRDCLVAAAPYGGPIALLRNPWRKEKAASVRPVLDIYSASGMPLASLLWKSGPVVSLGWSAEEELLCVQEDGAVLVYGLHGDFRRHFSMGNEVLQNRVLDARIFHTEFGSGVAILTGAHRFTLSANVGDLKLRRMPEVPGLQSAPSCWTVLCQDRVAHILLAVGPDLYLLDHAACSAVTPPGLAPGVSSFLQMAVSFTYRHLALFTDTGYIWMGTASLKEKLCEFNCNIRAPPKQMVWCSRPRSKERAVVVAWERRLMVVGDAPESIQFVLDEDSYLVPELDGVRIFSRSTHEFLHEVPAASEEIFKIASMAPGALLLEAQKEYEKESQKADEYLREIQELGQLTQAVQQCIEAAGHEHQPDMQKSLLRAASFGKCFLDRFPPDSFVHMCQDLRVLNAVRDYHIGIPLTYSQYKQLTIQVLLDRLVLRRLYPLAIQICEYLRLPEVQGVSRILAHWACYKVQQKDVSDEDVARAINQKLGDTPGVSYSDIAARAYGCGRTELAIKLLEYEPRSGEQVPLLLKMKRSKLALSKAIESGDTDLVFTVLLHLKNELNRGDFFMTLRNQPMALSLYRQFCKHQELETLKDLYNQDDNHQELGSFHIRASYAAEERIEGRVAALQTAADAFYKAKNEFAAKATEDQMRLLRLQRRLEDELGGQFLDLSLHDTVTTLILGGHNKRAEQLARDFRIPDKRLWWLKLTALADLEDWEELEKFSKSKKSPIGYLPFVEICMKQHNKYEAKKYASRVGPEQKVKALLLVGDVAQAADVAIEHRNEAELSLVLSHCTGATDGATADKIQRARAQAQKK

Rab29 (Q67L) = target: T3, Rab29 (Q67L) (UniProt O14966)
T3 sequence: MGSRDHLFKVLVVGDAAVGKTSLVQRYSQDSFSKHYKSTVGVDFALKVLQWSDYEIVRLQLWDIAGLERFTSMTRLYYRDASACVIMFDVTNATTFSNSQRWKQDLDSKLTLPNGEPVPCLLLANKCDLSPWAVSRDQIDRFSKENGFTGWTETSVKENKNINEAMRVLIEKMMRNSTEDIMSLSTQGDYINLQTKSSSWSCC

binding (Vps39): binds
binding (Vps16): binds
binding (Rab29 (Q67L)): binds
B1: TECPR2 (WT) (protein, UniProt O15040 1-1411)
chain: MASISEPVTFREFCPLYYLLNAIPTKIQKGFRSIVVYLTALDTNGDYIAVGSSIGMLYLYCRHLNQMRKYNFEGKTESITVVKLLSCFDDLVAAGTASGRVAVFQLVSSLPGRNKQLRRFDVTGIHKNSITALAWSPNGMKLFSGDDKGKIVYSSLDLDQGLCNSQLVLEEPSSIVQLDYSQKVLLVSTLQRSLLFYTEEKSVRQIGTQPRKSTGKFGACFIPGLCKQSDLTLYASRPGLRLWKADVHGTVQATFILKDAFAGGVKPFELHPRLESPNSGSCSLPERHLGLVSCFFQEGWVLSWNEYSIYLLDTVNQATVAGLEGSGDIVSVSCTENEIFFLKGDRNIIRISSRPEGLTSTVRDGLEMSGCSERVHVQQAEKLPGATVSETRLRGSSMASSVASEPRSRSSSLNSTDSGSGLLPPGLQATPELGKGSQPLSQRFNAISSEDFDQELVVKPIKVKRKKKKKKTEGGSRSTCHSSLESTPCSEFPGDSPQSLNTDLLSMTSSVLGSSVDQLSAESPDQESSFNGEVNGVPQENTDPETFNVLEVSGSMPDSLAEEDDIRTEMPHCHHAHGRELLNGAREDVGGSDVTGLGDEPCPADDGPNSTQLPFQEQDSSPGAHDGEDIQPIGPQSTFCEVPLLNSLTVPSSLSWAPSAEQWLPGTRADEGSPVEPSQEQDILTSMEASGHLSTNLWHAVTDDDTGQKEIPISERVLGSVGGQLTPVSALAASTHKPWLEQPPRDQTLTSSDEEDIYAHGLPSSSSETSVTELGPSCSQQDLSRLGAEDAGLLKPDQFAESWMGYSGPGYGILSLVVSEKYIWCLDYKGGLFCSALPGAGLRWQKFEDAVQQVAVSPSGALLWKIEQKSNRAFACGKVTIKGKRHWYEALPQAVFVALSDDTAWIIRTSGDLYLQTGLSVDRPCARAVKVDCPYPLSQITARNNVVWALTEQRALLYREGVSSFCPEGEQWKCDIVSERQALEPVCITLGDQQTLWALDIHGNLWFRTGIISKKPQGDDDHWWQVSITDYVVFDQCSLFQTIIHATHSVATAAQAPVEKVADKLRMAFWSQQLQCQPSLLGVNNSGVWISSGKNEFHVAKGSLIGTYWNHVVPRGTASATKWAFVLASAAPTKEGSFLWLCQSSKDLCSVSAQSAQSRPSTVQLPPEAEMRAYAACQDALWALDSLGQVFIRTLSKSCPTGMHWTRLDLSQLGAVKLTSLACGNQHIWACDSRGGVYFRVGTQPLNPSLMLPAWIMIEPPVQPAGVSLVSVHSSPNDQMLWVLDSRWNVHVRTGITEEMPVGTAWEHVPGLQACQLALSTRTVWARCPNGDLARRYGVTDKNPAGDYWKKIPGSVSCFTVTASDELWAVGPPGYLLQRLTKTFSHSHGTQKSSQAAMPHPEDLEDEWEVI
